Assay results published in the supplement of paper PMC10849652.
The other results are listed elsewhere or left out.

Chains of the proteins cited; added tags and fusions are not shown. Lines headed by an entry give the natural chain unless they say otherwise; changes in a name come on top.
UniProt P01009, whole entry, looked up: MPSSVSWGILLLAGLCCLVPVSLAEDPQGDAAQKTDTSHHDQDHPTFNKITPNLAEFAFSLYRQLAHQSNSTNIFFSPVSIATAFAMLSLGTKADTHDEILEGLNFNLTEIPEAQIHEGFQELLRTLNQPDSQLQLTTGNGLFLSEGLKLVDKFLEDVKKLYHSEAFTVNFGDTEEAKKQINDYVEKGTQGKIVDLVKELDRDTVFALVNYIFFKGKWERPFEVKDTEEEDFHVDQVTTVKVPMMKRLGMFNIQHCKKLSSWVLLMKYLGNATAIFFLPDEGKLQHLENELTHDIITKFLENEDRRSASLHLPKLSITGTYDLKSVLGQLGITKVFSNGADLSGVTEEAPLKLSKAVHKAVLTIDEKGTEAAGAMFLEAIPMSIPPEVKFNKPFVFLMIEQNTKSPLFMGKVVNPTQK
UniProt P12755: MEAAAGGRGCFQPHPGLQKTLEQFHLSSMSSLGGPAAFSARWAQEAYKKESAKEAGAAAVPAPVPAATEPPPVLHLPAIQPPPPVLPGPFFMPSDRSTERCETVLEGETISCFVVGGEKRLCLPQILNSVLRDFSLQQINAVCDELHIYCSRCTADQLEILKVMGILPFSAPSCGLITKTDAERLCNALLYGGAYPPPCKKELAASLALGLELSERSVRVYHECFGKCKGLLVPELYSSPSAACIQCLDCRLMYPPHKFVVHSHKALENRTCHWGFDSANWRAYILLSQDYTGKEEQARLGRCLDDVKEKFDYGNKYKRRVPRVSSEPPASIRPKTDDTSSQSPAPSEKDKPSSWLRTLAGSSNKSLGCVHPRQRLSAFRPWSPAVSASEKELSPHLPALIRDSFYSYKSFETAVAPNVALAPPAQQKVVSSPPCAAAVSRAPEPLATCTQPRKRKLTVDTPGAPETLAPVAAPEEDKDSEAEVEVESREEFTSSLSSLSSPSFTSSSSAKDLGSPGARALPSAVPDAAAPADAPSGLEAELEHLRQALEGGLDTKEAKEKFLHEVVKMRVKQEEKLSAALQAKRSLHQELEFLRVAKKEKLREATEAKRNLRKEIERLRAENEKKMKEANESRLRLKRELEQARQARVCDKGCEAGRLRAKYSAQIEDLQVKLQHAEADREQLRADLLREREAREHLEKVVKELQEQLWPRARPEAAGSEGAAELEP
UniProt P51688: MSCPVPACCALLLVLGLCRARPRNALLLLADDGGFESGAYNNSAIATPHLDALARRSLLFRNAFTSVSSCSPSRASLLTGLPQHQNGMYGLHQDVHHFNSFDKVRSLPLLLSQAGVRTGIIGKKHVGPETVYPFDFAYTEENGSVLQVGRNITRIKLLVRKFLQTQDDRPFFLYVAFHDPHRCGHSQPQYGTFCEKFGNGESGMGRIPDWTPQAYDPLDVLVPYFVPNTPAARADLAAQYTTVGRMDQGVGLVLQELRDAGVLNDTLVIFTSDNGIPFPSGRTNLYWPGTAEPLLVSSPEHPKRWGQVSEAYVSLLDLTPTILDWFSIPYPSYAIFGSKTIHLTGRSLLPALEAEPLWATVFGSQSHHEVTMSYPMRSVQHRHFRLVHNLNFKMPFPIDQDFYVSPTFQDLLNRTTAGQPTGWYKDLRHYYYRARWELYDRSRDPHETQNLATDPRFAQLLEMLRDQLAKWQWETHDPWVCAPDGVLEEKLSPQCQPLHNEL
UniProt Q8IW75: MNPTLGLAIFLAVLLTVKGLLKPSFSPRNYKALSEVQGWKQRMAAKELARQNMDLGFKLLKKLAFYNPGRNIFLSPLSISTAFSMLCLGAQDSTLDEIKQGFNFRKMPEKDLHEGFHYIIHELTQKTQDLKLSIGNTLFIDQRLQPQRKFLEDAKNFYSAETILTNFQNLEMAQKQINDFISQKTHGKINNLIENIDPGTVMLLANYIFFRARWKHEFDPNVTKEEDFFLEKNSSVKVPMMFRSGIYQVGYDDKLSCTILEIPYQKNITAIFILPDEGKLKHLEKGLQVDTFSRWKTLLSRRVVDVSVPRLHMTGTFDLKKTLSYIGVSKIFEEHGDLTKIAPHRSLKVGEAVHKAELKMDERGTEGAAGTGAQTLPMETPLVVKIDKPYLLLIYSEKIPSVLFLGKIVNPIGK
UniProt Q8IUQ4: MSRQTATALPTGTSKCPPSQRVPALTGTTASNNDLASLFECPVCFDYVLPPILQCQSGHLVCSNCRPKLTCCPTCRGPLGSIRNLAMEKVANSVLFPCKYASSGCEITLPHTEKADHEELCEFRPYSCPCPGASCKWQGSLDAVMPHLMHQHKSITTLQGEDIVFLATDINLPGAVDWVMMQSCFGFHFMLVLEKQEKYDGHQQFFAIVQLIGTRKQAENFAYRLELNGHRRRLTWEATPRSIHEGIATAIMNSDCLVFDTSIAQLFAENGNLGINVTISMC
UniProt P29353: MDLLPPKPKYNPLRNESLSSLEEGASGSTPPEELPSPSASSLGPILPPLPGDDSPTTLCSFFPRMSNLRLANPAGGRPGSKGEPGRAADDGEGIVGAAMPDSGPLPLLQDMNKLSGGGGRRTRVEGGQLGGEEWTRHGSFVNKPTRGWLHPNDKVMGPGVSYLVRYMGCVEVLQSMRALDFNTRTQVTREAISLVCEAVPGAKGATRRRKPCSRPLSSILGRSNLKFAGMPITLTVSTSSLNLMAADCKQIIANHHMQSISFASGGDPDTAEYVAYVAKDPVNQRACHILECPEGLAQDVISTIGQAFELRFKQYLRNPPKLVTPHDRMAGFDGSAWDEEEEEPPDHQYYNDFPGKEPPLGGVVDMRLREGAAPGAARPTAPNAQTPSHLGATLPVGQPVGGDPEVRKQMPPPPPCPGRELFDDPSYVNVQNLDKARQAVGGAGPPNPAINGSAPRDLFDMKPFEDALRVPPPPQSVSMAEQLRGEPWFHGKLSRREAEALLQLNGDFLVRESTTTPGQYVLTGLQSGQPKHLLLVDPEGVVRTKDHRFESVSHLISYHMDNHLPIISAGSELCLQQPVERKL
UniProt Q8WV19: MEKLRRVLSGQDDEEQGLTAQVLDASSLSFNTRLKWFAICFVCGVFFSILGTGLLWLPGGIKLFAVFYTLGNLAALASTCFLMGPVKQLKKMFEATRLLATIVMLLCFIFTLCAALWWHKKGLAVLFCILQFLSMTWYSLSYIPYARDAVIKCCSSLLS
UniProt Q587I9: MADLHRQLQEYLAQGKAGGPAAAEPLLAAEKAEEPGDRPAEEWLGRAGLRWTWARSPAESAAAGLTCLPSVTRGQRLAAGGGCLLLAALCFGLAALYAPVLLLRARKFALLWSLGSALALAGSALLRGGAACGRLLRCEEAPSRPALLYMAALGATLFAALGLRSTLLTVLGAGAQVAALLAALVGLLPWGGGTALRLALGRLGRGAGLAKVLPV
UniProt Q562F6: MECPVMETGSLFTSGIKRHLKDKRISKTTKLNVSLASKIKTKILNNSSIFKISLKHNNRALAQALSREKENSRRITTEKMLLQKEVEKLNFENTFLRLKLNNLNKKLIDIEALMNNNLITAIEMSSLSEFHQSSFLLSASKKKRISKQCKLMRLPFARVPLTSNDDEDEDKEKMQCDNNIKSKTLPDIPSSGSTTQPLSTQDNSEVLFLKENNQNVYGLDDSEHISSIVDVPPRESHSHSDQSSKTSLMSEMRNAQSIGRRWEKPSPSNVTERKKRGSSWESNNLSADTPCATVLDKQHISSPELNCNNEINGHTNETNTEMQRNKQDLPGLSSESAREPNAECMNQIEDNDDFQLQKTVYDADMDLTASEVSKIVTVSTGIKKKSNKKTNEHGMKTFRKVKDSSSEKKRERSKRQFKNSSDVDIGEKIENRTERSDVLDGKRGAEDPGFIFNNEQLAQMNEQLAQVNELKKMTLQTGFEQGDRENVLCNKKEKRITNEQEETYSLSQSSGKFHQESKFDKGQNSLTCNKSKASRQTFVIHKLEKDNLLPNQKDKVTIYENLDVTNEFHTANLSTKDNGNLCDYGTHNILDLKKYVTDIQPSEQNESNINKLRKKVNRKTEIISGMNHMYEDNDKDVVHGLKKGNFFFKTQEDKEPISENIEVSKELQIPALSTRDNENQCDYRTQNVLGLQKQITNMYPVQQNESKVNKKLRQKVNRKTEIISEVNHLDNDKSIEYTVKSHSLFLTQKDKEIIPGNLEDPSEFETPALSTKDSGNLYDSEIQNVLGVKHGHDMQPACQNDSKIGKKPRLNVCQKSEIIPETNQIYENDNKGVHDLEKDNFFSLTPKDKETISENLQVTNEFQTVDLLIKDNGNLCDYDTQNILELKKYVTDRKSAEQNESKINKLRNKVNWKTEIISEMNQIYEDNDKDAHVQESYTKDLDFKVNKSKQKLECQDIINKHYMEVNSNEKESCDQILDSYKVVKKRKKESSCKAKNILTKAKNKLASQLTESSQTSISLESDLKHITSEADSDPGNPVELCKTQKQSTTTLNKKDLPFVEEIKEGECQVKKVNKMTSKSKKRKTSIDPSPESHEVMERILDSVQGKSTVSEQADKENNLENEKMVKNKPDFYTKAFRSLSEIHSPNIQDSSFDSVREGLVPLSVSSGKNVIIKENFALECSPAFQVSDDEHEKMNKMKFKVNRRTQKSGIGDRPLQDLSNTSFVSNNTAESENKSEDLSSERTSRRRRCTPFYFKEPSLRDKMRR
UniProt Q9Y2K2: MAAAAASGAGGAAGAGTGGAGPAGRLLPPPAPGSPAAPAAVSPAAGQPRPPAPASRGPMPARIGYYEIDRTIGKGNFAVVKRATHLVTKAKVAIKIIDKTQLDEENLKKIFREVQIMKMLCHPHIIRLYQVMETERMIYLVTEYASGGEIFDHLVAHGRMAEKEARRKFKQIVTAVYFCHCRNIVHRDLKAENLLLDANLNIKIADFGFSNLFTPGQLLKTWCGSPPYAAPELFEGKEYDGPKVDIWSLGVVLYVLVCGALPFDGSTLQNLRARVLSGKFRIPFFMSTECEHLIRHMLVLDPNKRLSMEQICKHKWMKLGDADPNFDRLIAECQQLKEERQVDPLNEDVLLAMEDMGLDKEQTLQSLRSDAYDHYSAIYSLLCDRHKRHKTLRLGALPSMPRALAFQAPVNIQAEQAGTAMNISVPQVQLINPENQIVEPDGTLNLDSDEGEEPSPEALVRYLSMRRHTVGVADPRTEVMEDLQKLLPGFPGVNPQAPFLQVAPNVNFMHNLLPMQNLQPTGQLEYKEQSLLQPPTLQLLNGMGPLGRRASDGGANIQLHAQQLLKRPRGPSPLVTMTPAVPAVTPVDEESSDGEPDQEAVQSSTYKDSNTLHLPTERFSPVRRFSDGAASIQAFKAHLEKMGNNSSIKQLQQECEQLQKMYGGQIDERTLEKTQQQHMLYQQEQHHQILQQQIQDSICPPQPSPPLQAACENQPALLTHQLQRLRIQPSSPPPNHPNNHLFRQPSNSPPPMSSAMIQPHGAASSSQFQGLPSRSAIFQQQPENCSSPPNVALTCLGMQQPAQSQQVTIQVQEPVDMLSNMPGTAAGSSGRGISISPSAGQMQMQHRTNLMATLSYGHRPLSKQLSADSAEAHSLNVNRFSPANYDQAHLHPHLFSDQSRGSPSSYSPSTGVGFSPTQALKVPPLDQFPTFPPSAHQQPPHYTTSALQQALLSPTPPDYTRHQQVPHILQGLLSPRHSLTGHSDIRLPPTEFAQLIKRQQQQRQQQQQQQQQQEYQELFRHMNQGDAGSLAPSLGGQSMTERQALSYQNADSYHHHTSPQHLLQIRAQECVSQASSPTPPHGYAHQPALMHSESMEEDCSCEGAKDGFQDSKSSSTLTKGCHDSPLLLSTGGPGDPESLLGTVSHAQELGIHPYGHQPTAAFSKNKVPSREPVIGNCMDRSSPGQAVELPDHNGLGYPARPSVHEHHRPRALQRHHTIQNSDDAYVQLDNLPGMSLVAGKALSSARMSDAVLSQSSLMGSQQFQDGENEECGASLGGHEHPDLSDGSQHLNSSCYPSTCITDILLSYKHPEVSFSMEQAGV
UniProt Q8TBK2: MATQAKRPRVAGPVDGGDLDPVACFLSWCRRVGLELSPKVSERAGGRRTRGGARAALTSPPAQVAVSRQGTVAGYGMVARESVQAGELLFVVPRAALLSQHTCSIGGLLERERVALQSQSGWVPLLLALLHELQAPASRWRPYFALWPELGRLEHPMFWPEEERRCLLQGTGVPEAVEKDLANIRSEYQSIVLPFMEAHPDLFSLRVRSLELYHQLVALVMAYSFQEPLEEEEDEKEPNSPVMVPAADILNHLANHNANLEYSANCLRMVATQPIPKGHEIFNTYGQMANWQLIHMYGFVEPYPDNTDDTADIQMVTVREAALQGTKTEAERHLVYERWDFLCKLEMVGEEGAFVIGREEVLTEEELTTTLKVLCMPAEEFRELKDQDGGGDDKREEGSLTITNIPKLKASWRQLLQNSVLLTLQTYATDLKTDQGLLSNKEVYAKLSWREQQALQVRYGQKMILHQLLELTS

Tests used:
Experiment in all cases: log2 fold change, soluble protein after heating vs DMSO (PISA); higher = thermal stabilisation; K562 lysate, 10 uM; active = over 0.2 and 3.5 SD of the protein, either way, in both replicates (recomputed)
[1] = compound: CCn1c(C(=O)N(C2CC2)C2CC2)cc2c3c(ncn3C)c(Nc3cc(C)n(C)n3)nc21
How it was run: (§1)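 The values are log-two fold changes in thermal stability compared with solvent controls and come from duplicates. They were obtained by TMTpro 16plex LC-MS/MS, with channel sums equalised, on the supernatant after 21,000xg for 90 min. That supernatant came from crude K562 extract at 1 mg/mL protein treated with 10 μM compound for 30 min, heated for 3 min across 48°C-58°C, pooled and brought to 0.5% NP-40 at 4°C.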

[2] = compound: CCn1cc(-c2ccnc3[nH]c(-c4cccc(CN(C)C)c4)cc23)c(-c2ccc(NC(=O)N(C)C)cc2)n1
How it was run: as §1

[3] = compound: CN1CCC(CNc2ccc3ncc(-c4cccc(OC(F)(F)F)c4)n3n2)CC1
How it was run: as §1

saracatinib = compound: CN1CCN(CCOc2cc(OC3CCOCC3)c3c(Nc4c(Cl)ccc5c4OCO5)ncnc3c2)CC1 [saracatinib]
How it was run: as §1

alvocidib = compound: CN1CC[C@H](c2c(O)cc(O)c3c(=O)cc(-c4ccccc4Cl)oc23)[C@H](O)C1 [alvocidib]
How it was run: as §1

Tubastatin A = compound: CN1CCc2c(c3ccccc3n2Cc2ccc(C(=O)NO)cc2)C1 [Tubastatin A]
How it was run: as §1

[4] = compound: CNc1nc(-c2ccc3c(N)n[nH]c3c2)cc(N2C[C@@H](C(=O)NC3CCCCC3)CC[C@H]2C)n1
How it was run: as §1

sotrastaurin = compound: CN1CCN(c2nc(C3=C(c4c[nH]c5ccccc45)C(=O)NC3=O)c3ccccc3n2)CC1 [sotrastaurin]
How it was run: as §1

[5] = compound: CCCS(=O)(=O)Nc1ccc(F)c(C(=O)c2c[nH]c3ncc(Cl)cc23)c1F
How it was run: as §1

volasertib = compound: CC[C@@H]1C(=O)N(C)c2cnc(Nc3ccc(C(=O)N[C@H]4CC[C@H](N5CCN(CC6CC6)CC5)CC4)cc3OC)nc2N1C(C)C [volasertib]
How it was run: as §1

alisertib = compound: COc1cc(Nc2ncc3c(n2)-c2ccc(Cl)cc2C(c2c(F)cccc2OC)=NC3)ccc1C(=O)O [alisertib]
How it was run: as §1

[6] = compound: COc1cc2nc(-c3cc(F)ccc3O)nc(N[C@@H]3CNC[C@H]3C(C)(C)O)c2cc1OC
How it was run: as §1

gefitinib = compound: COc1cc2ncnc(Nc3ccc(F)c(Cl)c3)c2cc1OCCCN1CCOCC1 [gefitinib]
How it was run: as §1

barasertib = compound: CCN(CCCOc1ccc2c(Nc3cc(CC(=O)Nc4cccc(F)c4)[nH]n3)ncnc2c1)CCOP(=O)(O)O [barasertib]
How it was run: as §1

[7] = compound: CNC(=O)C1=CC=CC=C1NC2=NC(=NC=C2Cl)NC3=C(C=C(C=C3)N4CCOCC4)OC
How it was run: as §1

[8] = compound: CC[C@@H]1C(=O)N(C)c2cnc(Nc3ccc(C(=O)NC4CCN(C)CC4)cc3OC)nc2N1C1CCCC1
How it was run: as §1

encorafenib = compound: COC(=O)N[C@@H](C)CNc1nccc(-c2cn(C(C)C)nc2-c2cc(Cl)cc(NS(C)(=O)=O)c2F)n1 [encorafenib]
How it was run: as §1

[9] = compound: COC(=O)[C@H](CCSC)NC(=O)C1=C(C=C(C=C1)NC[C@H](CS)N)C2=CC=CC=C2
How it was run: as §1

Measured: log2 fold change

SERPINA1 (UniProt P01009)
inactive: [1] -0.093 | [2] -0.027 | [3] -0.18 | saracatinib 0.068 | alvocidib 0.05 | Tubastatin A 0.078 | [4] -0.181

SKI (UniProt P12755)
inactive: [2] 0.124 | [3] 0.052 | alvocidib 0.044

SLAIN2 (UniProt D6RIF6)
inactive: [1] -0.26 | sotrastaurin 0.006 | Tubastatin A 0.286

SLC11A1, A0A0A0MTL3
inactive: [5] -0.148 | volasertib -0.004 | alisertib -0.085 | [6] 0.072 | gefitinib 0.068

SGSH (UniProt P51688)
inactive: [2] -0.206 | [3] 0.083 | alvocidib -0.039

SERPINA12 (UniProt Q8IW75)
inactive: [5] -0.338 | barasertib -0.299 | volasertib 0.164 | [1] -0.07 | saracatinib -0.164 | sotrastaurin -0.194 | Tubastatin A -0.002 | [7] -0.161 | [4] 0.087 | alisertib 0.06 | [6] -0.348 | gefitinib 0.736

SIAH1 isoform 2 (UniProt Q8IUQ4)
inactive: [5] 0.022 | volasertib 0.008 | [1] -0.039 | sotrastaurin -0.051 | Tubastatin A 0.011 | [7] 0.008 | alisertib 0.001 | [6] 0.002 | gefitinib -0.004

SHC1 (UniProt P29353)
inactive: [2] -0.2 | [3] -0.114 | alvocidib 0.144

SFT2D1 (UniProt Q8WV19)
inactive: saracatinib 0.077 | sotrastaurin 0.061 | [4] 0.077

SFT2D3 (UniProt Q587I9)
inactive: [5] 0.015 | [8] -0.055 | volasertib 0.021 | [1] -0.054 | [2] -0.136 | [3] 0.056 | saracatinib 0.04 | sotrastaurin -0.028 | alvocidib -0.095 | Tubastatin A 0.137 | [7] -0.065 | [4] -0.074 | encorafenib 0.055 | [9] -0.063 | alisertib -0.044 | [6] -0.015 | gefitinib -0.088

SH2D3A (UniProt Q9BRG2)
inactive: barasertib 0.215 | [1] 0.16 | Tubastatin A -0.113 | alisertib -0.178 | gefitinib 0.042

SGO2 (UniProt Q562F6)
inactive: barasertib 0.03 | [8] -0.056 | [1] -0.122 | sotrastaurin -0.013 | Tubastatin A 0.098 | encorafenib -0.093 | [9] 0.053

SIK3 (UniProt Q9Y2K2)
inactive: [8] 0.251 | [1] -0.076 | [2] -0.135 | [3] 0.398 | saracatinib 0.1 | sotrastaurin 0.014 | alvocidib 0.187 | Tubastatin A 0.161 | [7] -0.011 | [4] 0.056 | encorafenib -0.164 | [9] -0.332 | alisertib -0.064 | gefitinib 0.123

SHMT2 (UniProt G3V2Y4)
inactive: barasertib 0.065

SHMT1 (UniProt J3KRZ5)
inactive: alisertib 0.08 | gefitinib -0.104

SETD6 (UniProt Q8TBK2)
inactive: [1] -0.003 | saracatinib 0.063 | Tubastatin A -0.002 | [7] -0.016 | [4] -0.167 | alisertib -0.155 | gefitinib 0.147
